# Library screen at single concentrations

Source: ChEMBL document CHEMBL3988442, “University of Dundee, Small-Polar-MMV Screening Library” (2021).

A: 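Whole-parasite assay of Trypanosoma brucei over 72 hours; the read-out is not stated. Tested at 30 µM. Direction is inferred from retests: higher values go with stronger inhibition. Values scatter widely below zero; nearly all retest evidence comes from the higher of the two concentrations used. About 64,000 compounds were tested under these conditions; 1.5% (about 940) showed 50% or more at least once.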
B: 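Assay of Toxoplasma gondii numbers, read through their beta-galactosidase reporter with a colour substrate. Compounds at 10 µM. The record gives no direction; the compounds picked for IC50 retests had high values, so higher reads as fewer parasites. About 67,000 compounds were tested under these conditions; 0.38% (about 260) showed 50% or more at least once.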

Values are the deposited “Percent Effect”, in %. The record does not define 0% and 100%; most values in the screen are far below 50% and negative numbers occur (in some assays of this library far below -100). The compounds are a random part of those screened.

Compound: c1cc2c(cc1Cn1cc(C3CCOC3)nn1)CCCO2 (stereo not drawn)
A: 17.6
B: -4.358

Compound: Cc1ccc(CC(=O)N(C)CC2(O)CCN(c3ccccn3)C2)s1 (stereo not drawn)
A: 14.31
B: -43.88

Compound: Cc1cccc(C(=O)N2CC(C(=O)NCC3CC3)C3(CCOCC3)C2)n1.O=C(O)C(F)(F)F (stereo not drawn)
A: -77.36
B: 2.144

Compound: CCNC(=O)N1CC[C@@H](CC(=O)O)[C@@H](CC2=NCCc3ccccc32)C1
A: -17.75
B: -6.873

Compound: NC(=O)C1(CCCc2ccccn2)CCCN(Cc2ncc[nH]2)C1 (stereo not drawn)
A: -15.22
B: -17.94

Compound: CN(C1CCN(c2ccccn2)CC1)S(=O)(=O)c1cccs1
A: 14.22
B: 3.476

Compound: CC(C1CCN(Cc2cnc(-c3cccs3)nc2)CC1)N(C)C (stereo not drawn)
A: -41.52
B: 3.403

Compound: Cc1cccc(N(C)Cc2nc3c(cnn3C)c(=O)[nH]2)c1C
A: -47.75
B: 5.015

Compound: CC(=O)N[C@@H]1CN(Cc2nc3ccccc3[nH]2)C[C@H]1c1ccc(C)o1
A: -10.58
B: -14.61

Compound: COc1ccc(CNC(=O)CCCc2nnc3ccc(OC)nn23)cc1
A: 4.408
B: 19.14

Compound: [H][C@@]12CS(=O)(=O)C[C@]1([H])N(Cc1ccc(CC)cc1)CCN2C(=O)C(C)C
A: -7.118
B: -2.548

Compound: CNC(=O)NC(=O)C(C)N1CCN(c2ccc(C#N)cc2F)CC1 (stereo not drawn)
A: -18.9
B: 7.699

Compound: CN1CCCc2sc(C(=O)NCc3cccnc3)nc21
A: -15.39
B: -2.107

Compound: CCN1CCOC(CNCc2ccccc2OCc2ccccn2)C1 (stereo not drawn)
A: -13.69
B: -1.695

Compound: c1ccc(CCCC2CN(Cc3ncc[nH]3)CCO2)cc1 (stereo not drawn)
A: 4.003
B: 8.824

Compound: CCn1cc(NC(=O)C2CCN(Cc3noc(C(C)C)n3)CC2)cn1
A: 7.955
B: -1.744

Compound: CC(C)(C)c1csc(CCNC(=O)C(c2ccccc2)n2cnnn2)n1 (stereo not drawn)
A: -15.92
B: 3.395

Compound: COc1ccc([C@@H]2CN(c3cc(OC)ncn3)C[C@H]2N(C)C)cc1
A: -30.51
B: -0.4566

Compound: O=C(NCc1cc2ccccc2[nH]1)C1CCCN(C(=O)N2CCCC2)C1 (stereo not drawn)
A: -13.27
B: 3.654

Compound: CCC(C)NC(=O)CS(=O)(=O)Cc1ccccc1Cl (stereo not drawn)
A: -39.4
B: 3.95

Compound: O=C(O)C(F)(F)F.[H][C@@]12CN(C3CCOCC3)C[C@@]1([H])N(Cc1cccc(C)c1)C(=O)CO2
A: -46.8
B: -10.18

Compound: [H][C@@]12CCN(C(=O)COC)C[C@@]1([H])O[C@@H](c1nc(C)no1)C2
A: -8.812
B: -15.17

Compound: COCCNC(=O)N1CCCC(COc2ccccc2)C1 (stereo not drawn)
A: 4.089
B: 14.67

Compound: CC1(C)CN(C(=O)CC2CCC2)C[C@]1(C)O
A: 3.673
B: 1.924

Compound: Cc1ccc(CN2CCC3(CC2)CN(C(=O)c2cnccn2)CCO3)o1.O=C(O)C(F)(F)F
A: -12.58
B: 16.23

Compound: O=C(c1ccco1)N1CCC2(CC1)CCN(c1ncccn1)CC2
A: -18.45
B: -7.433

Repeated from the top, 2 entries:

Compound	A	B
c1cc2c(cc1Cn1cc(C3CCOC3)nn1)CCCO2 (stereo not drawn)	17.6	-4.358
Cc1ccc(CC(=O)N(C)CC2(O)CCN(c3ccccn3)C2)s1 (stereo not drawn)	14.31	-43.88